These are yes or no findings as the source states them, for the method shown. In cells and extracts the contact can be indirect. Some results given as binding are weak or reduced against the parent protein; the word gives no strength. For part of these data: Where a sequence is shown, tags or fusion partners need not be part of it.

Test [1] concerns the target T1, Myc-GFP-tagged Fl(2)d (full length) (Drosophila melanogaster) (UniProt Q9Y091).
T1 sequence: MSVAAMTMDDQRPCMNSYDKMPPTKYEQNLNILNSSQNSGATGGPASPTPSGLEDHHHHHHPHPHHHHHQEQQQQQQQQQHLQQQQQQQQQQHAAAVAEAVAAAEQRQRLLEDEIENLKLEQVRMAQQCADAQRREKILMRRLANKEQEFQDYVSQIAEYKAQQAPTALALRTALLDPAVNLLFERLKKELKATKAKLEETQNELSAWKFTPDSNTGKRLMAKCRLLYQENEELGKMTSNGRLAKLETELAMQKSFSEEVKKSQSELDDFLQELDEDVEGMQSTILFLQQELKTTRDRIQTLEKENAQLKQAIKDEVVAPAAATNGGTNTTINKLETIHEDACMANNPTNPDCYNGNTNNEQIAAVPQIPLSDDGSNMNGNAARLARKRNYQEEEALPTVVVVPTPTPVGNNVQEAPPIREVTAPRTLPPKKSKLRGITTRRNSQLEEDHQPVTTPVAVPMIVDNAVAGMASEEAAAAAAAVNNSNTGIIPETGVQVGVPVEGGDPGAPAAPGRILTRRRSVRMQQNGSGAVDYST
Put plainly: co-IP; S2R+ cells co-transfected with a Myc-GFP-tagged bait and an HA-tagged prey; NET buffer (50 mM Tris-HCl pH 7.5, 150 mM NaCl, 0.1% Triton, 1 mM EDTA, 10% glycerol), RNase A; GFP-magnetic beads, 4 °C; blots with anti-Myc or anti-GFP and anti-HA; some experiments after control (LacZ), vir or Hakai knock-down.

For test [2], the target named is T2, Myc-GFP-tagged Fl(2)d middle region and C-terminus (residues 125-536) (Drosophila melanogaster) (UniProt Q9Y091).
T2 sequence: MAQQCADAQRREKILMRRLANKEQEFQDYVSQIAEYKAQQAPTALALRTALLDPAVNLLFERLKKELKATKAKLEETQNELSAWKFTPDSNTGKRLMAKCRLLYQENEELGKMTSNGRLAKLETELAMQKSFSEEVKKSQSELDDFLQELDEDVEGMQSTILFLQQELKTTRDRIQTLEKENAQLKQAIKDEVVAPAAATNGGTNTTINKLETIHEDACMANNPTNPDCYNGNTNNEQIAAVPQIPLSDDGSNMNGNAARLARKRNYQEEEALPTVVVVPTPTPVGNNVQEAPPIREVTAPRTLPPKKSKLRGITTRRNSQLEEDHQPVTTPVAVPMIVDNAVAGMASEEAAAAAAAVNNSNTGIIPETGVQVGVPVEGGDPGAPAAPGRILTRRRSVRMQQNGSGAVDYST
The description is as above.

A further test has as its target human VIRMA (human) (UniProt Q69YN4). Kind of test: co-IP; HEK293T cells co-transfected with His6-FLAG3-eGFP- and His6-HA3-mCherry-tagged human constructs; lysis buffer 20 mM Tris-HCl pH 7.5, 150 mM KCl, 1 mM EDTA, 0.1% Tween20; RNase A; anti-FLAG M2 magnetic beads, 1 h; gels scanned for GFP and mCherry.
Test [3] deals with T3, Myc-GFP-tagged Virilizer C-terminal region (residues 1501-1854) (Drosophila melanogaster) (UniProt Q9W1R5).
T3 sequence: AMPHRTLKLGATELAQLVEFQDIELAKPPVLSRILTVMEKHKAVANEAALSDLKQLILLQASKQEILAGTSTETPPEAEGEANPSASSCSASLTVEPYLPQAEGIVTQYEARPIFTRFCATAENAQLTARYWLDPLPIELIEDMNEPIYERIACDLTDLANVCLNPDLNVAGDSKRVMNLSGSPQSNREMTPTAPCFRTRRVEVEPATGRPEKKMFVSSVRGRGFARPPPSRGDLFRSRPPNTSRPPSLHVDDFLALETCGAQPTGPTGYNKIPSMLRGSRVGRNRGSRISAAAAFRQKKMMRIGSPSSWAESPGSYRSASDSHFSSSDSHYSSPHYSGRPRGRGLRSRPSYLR
Kind of test: co-IP; S2R+ cells co-transfected with a Myc-GFP-tagged bait and an HA-tagged prey; NET buffer (50 mM Tris-HCl pH 7.5, 150 mM NaCl, 0.1% Triton, 1 mM EDTA, 10% glycerol), RNase A; GFP-magnetic beads, 4 °C; blots with anti-Myc or anti-GFP and anti-HA; some experiments after control (LacZ), vir or Hakai knock-down.

Test [4] concerns the target T4, human VIRMA N-terminal domain (residues 1-130) (human) (UniProt Q69YN4).
T4 sequence: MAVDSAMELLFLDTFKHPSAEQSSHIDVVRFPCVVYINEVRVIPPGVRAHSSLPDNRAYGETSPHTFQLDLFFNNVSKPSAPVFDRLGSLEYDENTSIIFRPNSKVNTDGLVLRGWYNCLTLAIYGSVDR
Put plainly: co-IP; HEK293T cells co-transfected with His6-FLAG3-eGFP- and His6-HA3-mCherry-tagged human constructs; lysis buffer 20 mM Tris-HCl pH 7.5, 150 mM KCl, 1 mM EDTA, 0.1% Tween20; RNase A; anti-FLAG M2 magnetic beads, 1 h; gels scanned for GFP and mCherry.

On to “HA-tagged Virilizer (from UniProt Q9W1R5 1-1854)”, for which the binding result in test [1] and in test [2] was “binds” each time.

B1: Nito (construct of the experiments of Supplementary Figs. 4 and 5) (protein, UniProt Q7KMJ6 1-793)
chain: MSSHRDGAGADRITIKIHNMKRSASRSPGPASRSSLSRNSRSMGRGYDNGSGVPGDSPERLSPERMRRRLDRSPSRYGSPHREPYMRGPPPAERPAGYKVLCVSALPPKAPDDFIEETLYREYKKFGDFSVRLAHDLDERVAYVCFRTPEDAREAKHHKPRLIIYDKMAIVEPVYKSTTRPEYRPRGHSMSPPDYERYHYSRSPMGQGVPLDHRRPPIDPYDRYGPPHMHPHAVHPRDYRPLHHDYPHPPRGPPLHRGGHPHHLHGHAPPHQYAPMRPLAPRPHAPYEKPESKKDKFPNYLHHVQPEDDPLSTRTLFAGNLEVTIADDELRRIFGKYGVVDDIDIKRPPPGTGNAFAFVRYQNLDMAHRAKIELSGQYIGKFQCKIGYGKVTPATRMWIGGLGAWTSVTQLEREFDRFGAIKKIEYQKGEPYAYIQYETVEAATAAVKEMRGFPLGGPERRLRTDFAELPGATPAAPFKSSKPPYDESALEYRRPEYDPYYEESAAYAPRGGYSPYPPRGGYRGRGGYRGRGRGMYHYHNDVHRPPHPGSLAGSSSSVPPPGGVEDEWRRPPGESYDRGARSSSREPGVERSRSRSPLKRARSPGSDSDTSTRRNDALASASTVPDVARKCSTVWTGALILKSSLFPAKFHLTDGDTDIVESLMRDEEGKHNLRITQRLRLDPPKLDDVQKRIASSSSHAIFMGLAGSTNDTNCDDASVQTRPLRNLVSYLKQKEAAGVISLLNKETEATGVLYAFPPCDFSTELLKRTCHSLTEEGLKEDHLVIVVVRGGTA
As for B1, in test [1], the binding entry was “binds”.

B2: human WTAP predicted structured region (residues 1-249) (domain or fragment, UniProt Q15007 1-249)
chain: MTNEEPLPKKVRLSETDFKVMARDELILRWKQYEAYVQALEGKYTDLNSNDVTGLRESEEKLKQQQQESARRENILVMRLATKEQEMQECTTQIQYLKQVQQPSVAQLRSTMVDPAINLFFLKMKGELEQTKDKLEQAQNELSAWKFTPDSQTGKKLMAKCRMLIQENQELGRQLSQGRIAQLEAELALQKKYSEELKSSQDELNDFIIQLDEEVEGMQSTILVLQQQLKETRQQLAQYQQQQSQASAP
Regarding B2, the binding result with human VIRMA (human) is “binds”.

B3: HA-tagged Fl(2)d (pAc5.1B-lambdaN-HA vector) (protein, UniProt Q9Y091 1-536)
chain: T1 sequence
Regarding B3, the binding entry in test [3] was “binds”.

B4: human HAKAI (protein, UniProt Q75N03 1-491)
chain: MDHTDNELQGTNSSGSLGGLDVRRRIPIKLISKQANKAKPAPRTQRTINRMPAKAPPGDEEGFDYNEEERYDCKGGELFANQRRFPGHLFWDFQINILGEKDDTPVHFCDKCGLPIKIYGRMIPCKHVFCYDCAILHEKKGDKMCPGCSDPVQRIEQCTRGSLFMCSIVQGCKRTYLSQRDLQAHINHRHMRAGKPVTRASLENVHPPIAPPPTEIPERFIMPPDKHHMSHIPPKQHIMMPPPPLQHVPHEHYNQPHEDIRAPPAELSMAPPPPRSVSQETFRISTRKHSNLITVPIQDDSNSGAREPPPPAPAPAHHHPEYQGQPVVSHPHHIMPPQQHYAPPPPPPPPISHPMPHPPQAAGTPHLVYSQAPPPPMTSAPPPITPPPGHIIAQMPPYMNHPPPGPPPPQHGGPPVTAPPPHHYNPNSLPQFTEDQGTLSPPFTQPGGMSPGIWPAPRGPPPPPRLQGPPSQTPLPGPHHPDQTRYRPYYQ
Turning to B4, the binding result in test [4] is “binds”.

For the origin of these results see article PMC8213727.
